Reference: PubChem BioAssay AID272 (DTP/NCI, 2004)
The list does not hold the whole screen: it gathers tests that were run many times, whatever their T/C, doses with no T/C, and many T/C values between a quarter and a half above the control. Other doses and runs of a compound stand elsewhere. T/C is the treated group as % of the vehicle group. Some entries give survivors of the animals treated and no T/C: the source holds a T/C of zero for them, seemingly a mark for toxic or unscored doses. Some survivor counts are full or nearly so, which does not show that the dose was tolerated: survival well below the control is almost never listed, so the zero probably covers shortened survival too. Counts of survivors are from the toxicity check (mostly the fifth day) where no day follows; animals may have died later. Schedule codes are those of the source, read here as Q, the interval in days (D) or hours (H), X, the number of doses. Some doses were run more than once; the results are listed from low to high. Marks such as (2×) stand for listed records that agree. For survival time, this PubChem deposit counts one and a half times the control or more as active, and values a quarter to a half above the control carry no call in these data; other NCI protocols may use other cut-offs. Some T/C values carry the count of animals alive at the toxicity check (mostly the fifth day); without a count, all were alive then.

System: Lewis lung carcinoma i.m., BDF1 mice, T/C %
Assay: NCI In Vivo Anticancer Drug Screen. Data for tumor model Lewis Lung Carcinoma (intramuscular) in B6D2F1 (BDF1) mice
Conditions: T/C endpoint: median survival time, higher T/C = longer survival
Procedure: The antitumor activity of compounds was measured in mice bearing transplantable tumors. Survival or tumor size were measured and the results are expressed as the measurement made in the treated group (T) divided by the measurement made in the vehicle treated control group (C). The tumor model used in this assay is Lewis Lung Carcinoma (intramuscular) in B6D2F1 (BDF1) mice

O=P1(N(CCCl)CCCl)NCCCO1 (stereo not drawn)
T/C (dose: 100.0 mg/kg/injection, schedule: Q01DX001 (ip), vehicle: saline, evaluated on day 13): 153 % of control | T/C (dose: 100.0 mg/kg/injection, schedule: Q01DX001 (ip), vehicle: saline, evaluated on day 40): 137 % of control | T/C (dose: 100.0 mg/kg/injection, schedule: Q01DX001 (ip), vehicle: saline, evaluated on day 60): 153 % of control | T/C (dose: 100.0 mg/kg/injection, schedule: Q01DX001 (ip), vehicle: saline, evaluated on day 93): 403 % of control | survivor count (dose: 100.0 mg/kg/injection, schedule: Q01DX009 (ip), vehicle: saline): 10 of 10 | T/C (dose: 100.0 mg/kg/injection, schedule: Q03DX010 (ip), vehicle: saline, evaluated on day 9): 73 % of control | T/C (dose: 100.0 mg/kg/injection, schedule: Q03DX010 (ip), vehicle: saline, evaluated on day 13): 34 % of control | survivor count (dose: 100.0 mg/kg/injection, schedule: Q03DX010 (ip), vehicle: saline): 2 of 8 and 8 of 8 | T/C (dose: 108.0 mg/kg/injection, schedule: Q01DX001 (ip), vehicle: saline, evaluated on day 10): 135 % of control | T/C (dose: 108.0 mg/kg/injection, schedule: Q01DX001 (ip), vehicle: saline, evaluated on day 36): 97 % of control | T/C (dose: 108.0 mg/kg/injection, schedule: Q01DX001 (ip), vehicle: saline, evaluated on day 38): 144 % of control | T/C (dose: 108.0 mg/kg/injection, schedule: Q01DX001 (ip), vehicle: saline, evaluated on day 40): 132, 137, 142, 153 % of control | T/C (dose: 108.0 mg/kg/injection, schedule: Q01DX001 (ip), vehicle: saline, evaluated on day 41): 139 and 142 % of control | T/C (dose: 108.0 mg/kg/injection, schedule: Q01DX001 (ip), vehicle: saline, evaluated on day 42): 92 [7 of 8 alive], 111, 126, 128 % of control | T/C (dose: 108.0 mg/kg/injection, schedule: Q01DX001 (ip), vehicle: saline, evaluated on day 43): 103 % of control | T/C (dose: 108.0 mg/kg/injection, schedule: Q01DX001 (ip), vehicle: saline, evaluated on day 47): 109, 134, 137, 163, 184 % of control | T/C (dose: 108.0 mg/kg/injection, schedule: Q01DX001 (ip), vehicle: saline, evaluated on day 50): 146 [7 of 8 alive] and 183 % of control [7 of 8 alive] | T/C (dose: 108.0 mg/kg/injection, schedule: Q01DX001 (ip), vehicle: saline, evaluated on day 62): 135 % of control [9 of 10 alive] | T/C (dose: 108.0 mg/kg/injection, schedule: Q01DX001 (ip), vehicle: saline, evaluated on day 66): 168 % of control | survivor count (dose: 108.0 mg/kg/injection, schedule: Q01DX001 (ip), vehicle: saline): 7 of 8 | T/C (dose: 108.0 mg/kg/injection, schedule: Q01DX001 (sc), vehicle: saline): 129 % of control | T/C (dose: 108.0 mg/kg/injection, schedule: Q01DX011 (ip), vehicle: saline, evaluated on day 42): 106, 120, 162 % of control [7 of 8 alive] | T/C (dose: 108.0 mg/kg/injection, schedule: Q01DX011 (ip), vehicle: saline, evaluated on day 47): 130 % of control | survivor count (dose: 108.0 mg/kg/injection, schedule: Q08DX003 (ip), vehicle: saline): 7 of 8 | T/C (dose: 180.0 mg/kg/injection, schedule: Q01DX001 (ip), vehicle: saline, evaluated on day 10): 146 % of control | T/C (dose: 180.0 mg/kg/injection, schedule: Q01DX001 (ip), vehicle: saline, evaluated on day 42): 150 and 161 % of control [7 of 8 alive] | T/C (dose: 180.0 mg/kg/injection, schedule: Q01DX001 (ip), vehicle: saline, evaluated on day 50): 138 and 219 % of control | T/C (dose: 180.0 mg/kg/injection, schedule: Q01DX001 (ip), vehicle: saline, evaluated on day 62): 146 % of control [9 of 10 alive] | survivor count (dose: 180.0 mg/kg/injection, schedule: Q01DX001 (ip), vehicle: saline): 3 of 8, 4 of 8 (2×), 5 of 8, 6 of 8, 8 of 10 | T/C (dose: 180.0 mg/kg/injection, schedule: Q01DX001 (sc), vehicle: saline): 143 % of control | survivor count (dose: 180.0 mg/kg/injection, schedule: Q08DX003 (ip), vehicle: saline): 6 of 8 | survivor count (dose: 200.0 mg/kg/injection, schedule: Q01DX001 (ip), vehicle: methylcellulose (MC)): 3 of 8 | T/C (dose: 200.0 mg/kg/injection, schedule: Q01DX001 (ip), vehicle: saline, evaluated on day 9): 100 % of control | T/C (dose: 200.0 mg/kg/injection, schedule: Q01DX001 (ip), vehicle: saline, evaluated on day 13): 195 % of control | T/C (dose: 200.0 mg/kg/injection, schedule: Q01DX001 (ip), vehicle: saline, evaluated on day 60): 195 % of control | T/C (dose: 200.0 mg/kg/injection, schedule: Q01DX001 (ip), vehicle: saline, evaluated on day 93): 100 % of control | survivor count (dose: 200.0 mg/kg/injection, schedule: Q03DX010 (ip), vehicle: saline): 0 of 8 | survivor count (dose: 300.0 mg/kg/injection, schedule: Q01DX001 (ip), vehicle: saline): 5 of 8 and 7 of 10 | survivor count (dose: 300.0 mg/kg/injection, schedule: Q08DX003 (ip), vehicle: saline): 6 of 8 | survivor count (dose: 400.0 mg/kg/injection, schedule: Q01DX001 (ip), vehicle: methylcellulose (MC)): 0 of 8 | survivor count (dose: 400.0 mg/kg/injection, schedule: Q01DX001 (ip), vehicle: saline): 4 of 10 | survivor count (dose: 400.0 mg/kg/injection, schedule: Q01DX001 (sc), vehicle: saline): 2 of 8 | survivor count (dose: 460.0 mg/kg/injection, schedule: Q01DX001 (ip), vehicle: saline): 2 of 8
